The supplement of paper PMC8166895
Structures can show the parent of a compound that is named as a salt. Some of the results follow. Most values lie at the level of the controls, where differences are scatter.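 Differential scanning fluorimetry gave melting temperatures in a one-replicate pilot screen of a library of approved drugs plus clinical or known-target compounds. Hits increasing melting point at least 2 °C were the strongest stabilizers, while negative shifts signify destabilization.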

Tested on: SARS-CoV-2 main protease (Mpro, nsp5)
Experiment: thermal shift ΔTm of Mpro relative to plate average Tm; higher = stronger thermal stabilization of Mpro (binding)
Conditions: 10 µM; protein concentration 1 µM

Structure (SMILES)	thermal shift ΔTm of Mpro [°C]
O=C(NOC[C@H](O)CO)c1ccc(F)c(F)c1Nc1ccc(I)cc1F	-0.04
CC(C)c1cc(-c2ccc(F)c3ccccc23)nc(N)n1	-0.13
Cc1cccc(C#Cc2ccccc2)n1	-0.139
CC(C)(C)C1CCC(CC2=C(O)c3ccccc3C(=O)C2=O)CC1 (stereo not drawn) [Buparvaquone]	0.399
COc1ccc(C(NC(=O)c2cnc(-c3cccnn3)[nH]c2=O)c2ccc(OC)cc2)cc1	0.0226
CN(C)C(=O)Oc1cc(OC(=O)N(C)C)cc(C(O)CNC(C)(C)C)c1 (stereo not drawn) [Bambuterol HCl]	0.0464
C[C@H](O)C(=O)Nc1c(I)c(C(=O)NC(CO)CO)c(I)c(C(=O)NC(CO)CO)c1I [Iopamidol]	0.42
O=c1cc[nH]c(=S)[nH]1 [2-Thiouracil]	0.0602
Cc1nc(-c2cn3c(n2)-c2ccc(-c4cnn(C(C)(C)C(N)=O)c4)cc2OCC3)n(C(C)C)n1	-0.0369
O=C(/C=C/c1ccc(CN(CCO)CCc2c[nH]c3ccccc23)cc1)NO [LAQ824 (Dacinostat)]	0.122
Nc1nc(NCCc2ccc(O)cc2)nc2nc(-c3ccco3)nn12	-0.0369
COc1cc2oc(-c3ccccc3)cc(=O)c2c(O)c1O [Negletein]	-0.0544
O=C(O)c1cnn(-c2nc3cc(OC(F)(F)F)c(Cl)cc3[nH]2)c1 [HIF-PHD Inhibitor II]	0.00517
O=C(O)c1ccc(CN2CCC(CN[C@@H]3C[C@H]3c3ccccc3)CC2)cc1	-0.0236
CCOCC(O)COc1ccc(NC(=O)CC[S+](C)C)cc1 (stereo not drawn) [Suplatast Tosylate]	0.0604
COc1cc(OCc2ccccn2)ccc1/C=C/c1cc(/C=C/c2ccc3cc[nH]c3c2)n[nH]1	0.16
COc1c(O)c(C)cc2c1C(=O)c1c(O)cccc1C2=O [Obtusifolin]	0.167
N#Cc1ccc([C@H]2CCc3cncn32)c(F)c1 [Osilodrostat]	0.0859
CO/N=C(\C(=O)N[C@@H]1C(=O)N2C(C(=O)O)=C(COC(N)=O)CS[C@H]12)c1ccco1 [Cefuroxime sodium]	-0.0192

Structure (SMILES)	thermal shift ΔTm of Mpro [°C]
CN1CCN(CCOc2cc(OC3CCOCC3)c3c(Nc4c(Cl)ccc5c4OCO5)ncnc3c2)CC1 [Saracatinib (AZD0530)]	-0.179
CCN(C)C(=O)Oc1cccc([C@H](C)N(C)C)c1 [Rivastigmine]	0.174
CCN(C)C(=O)Oc1cccc([C@H](C)N(C)C)c1 [Rivastigmine Tartrate]	0.112
CNC(=O)c1cnn(-c2nc(N)c3ncn([C@@H]4O[C@H](CO)[C@@H](O)[C@H]4O)c3n2)c1 [Regadenoson]	0.0581
O=c1[nH]c(=S)[nH]c(/N=C/c2ccccc2)c1N=Cc1ccccc1	-0.0226
CCC(=O)c1c(O)cc(O)cc1O [Flopropione]	0.474
C=CC(=O)Nc1ccc2ncnc(Nc3cccc(Br)c3)c2c1	0.395
CC1Cc2ccccc2N1NC(=O)c1ccc(Cl)c(S(N)(=O)=O)c1 (stereo not drawn) [Indapamide]	-0.17
O=C(/C=C\n1cnc(-c2cc(C(F)(F)F)cc(C(F)(F)F)c2)n1)NNc1ccccn1 [Verdinexor (KPT-335)]	0.293
CCC1(c2ccc(N)cc2)CCC(=O)NC1=O (stereo not drawn) [Aminoglutethimide]	-0.13
CCN=C1N[C@@H]2[C@@H](O)[C@H](O)[C@@H](CO)O[C@@H]2S1 [Thiamet G]	-0.0164
NC1(C(=O)O)CC(C(=O)O)C1 (stereo not drawn)	0.0821
Nc1ncnc2c1c(I)cn2[C@@H]1O[C@H](CO)[C@@H](O)[C@H]1O [5-Iodotubercidin]	-0.0771
Cc1ccc(CN(CC(O)COc2cccc3[nH]ccc23)C(C)(C)C)cc1 (stereo not drawn)	-0.0353
CCC(=O)Oc1ccc2c(c1)CCC1C2CCC2(C)C(OC(=O)CC)CCC12 (stereo not drawn) [17-Beta-Estradiol-3,17-Dipropionate]	0.046
CNc1cccc(CCOc2ccc3c(c2)CN(CC(F)(F)F)C(=O)[C@H](CC(=O)O)C3)n1	-0.112
CCCCCCCCCCCCCCCC(=O)O[C@@H]1[C@@H](O)[C@@H](O)[C@@H]([C@H](NC(=O)[C@@H]2C[C@@H](CCC)CN2C)[C@H](C)Cl)O[C@@H]1SC [Clindamycin palmitate HCl]	0.063
Cc1cc(CC(=O)O)n(C)c1C(=O)c1ccc(Cl)cc1 [Zomepirac Sodium]	0.337
O=C1CN(/N=C/C=C/c2ccc([N+](=O)[O-])o2)C(=O)N1 [Furagin]	0.0874

Retrieved one by one from above (2):
Structure (SMILES)	thermal shift ΔTm of Mpro [°C]
Cc1cc(CC(=O)O)n(C)c1C(=O)c1ccc(Cl)cc1 [Zomepirac Sodium]	0.337
CC(C)(C)C1CCC(CC2=C(O)c3ccccc3C(=O)C2=O)CC1 (stereo not drawn) [Buparvaquone]	0.399
